Data from article PMC5996148.
“And” between values parts separate entries of the source, which are not always exact repeats. Equal values may be shown once. The list shows a part of the results.

Assays:
Test in all cases: protein microarray (ProtoArray v5.0), streptavidin-Alexa Fluor 647
Settings in all cases: 3'-biotin; 20 mM Tris (pH 7.5), 5 mM MgCl2, 100 mM KCl, 0.1% Tween-20, A/T-rich and random oligonucleotide blockers; temperature not stated; high values mean tight binding
FXYD1 (human) = test system: FXYD1 (human)
FXYD2 (human) = test system: FXYD2 (human)
FXYD5 (human) = test system: FXYD5 (human)
FXYD7 (human) = test system: FXYD7 (human)
FYCO1 (human) = test system: FYCO1 (human)
[1] = test system: FYVE, RhoGEF and PH domain-containing protein 2 (human)
[2] = test system: Ferritin heavy chain (human)
[3] = test system: Fibroblast growth factor receptor 2 (human)
[4] = test system: G1/S-specific cyclin-D1 (human)
G6PC (human) = test system: G6PC (human)
G6PD (human) = test system: G6PD (human)
[5] = test system: GA-binding protein subunit beta-1 (human)
GABPA (human) = test system: GABPA (human)
GABPB2 (human) = test system: GABPB2 (human)
GADD45G (human) = test system: GADD45G (human)
GAL (human) = test system: GAL (human)
GALE (human) = test system: GALE (human)
GALK1 (human) = test system: GALK1 (human)
GALNT12 (human) = test system: GALNT12 (human)
GAMT (human) = test system: GAMT (human)

For “GGGAGGCTGAGGCAGG [G4-1 biotinylated (PQS2)]”, which binding signal (FXYD1 (human)) is on record?
The binding signal was -0.331 z-score.

What about the binding signal (FXYD2 (human)) of the same sequence?
The binding signal was -0.318 z-score.

What about the binding signal (FXYD5 (human)) of the same sequence?
The binding signal was -0.329 z-score.

And the binding signal (FXYD7 (human))?
Its binding signal is -0.334 z-score.

And the binding signal (FYCO1 (human))?
The binding signal was -0.339 z-score.

What about the binding signal [1] of the same sequence?
The binding signal was -0.358 z-score.

What about the binding signal [2] of the same sequence?
The binding signal was -0.356 z-score.

What about the binding signal [3] of the same sequence?
Its binding signal is -0.274 z-score and -0.31 z-score.

And the binding signal [4]?
Its binding signal is -0.354 z-score.

And the binding signal (G6PC (human))?
Its binding signal is -0.338 z-score.

And the binding signal (G6PD (human))?
The binding signal was -0.323 z-score.

What about the binding signal [5] of the same sequence?
Its binding signal is -0.358 z-score.

What about the binding signal (GABPA (human)) of the same sequence?
Its binding signal is -0.363 z-score.

What about the binding signal (GABPB2 (human)) of the same sequence?
Its binding signal is -0.352 z-score and -0.358 z-score.

What about the binding signal (GADD45G (human)) of the same sequence?
Its binding signal is -0.308 z-score.

What about the binding signal (GAL (human)) of the same sequence?
Its binding signal is -0.275 z-score.

And the binding signal (GALE (human))?
Its binding signal is -0.324 z-score.

What about the binding signal (GALK1 (human)) of the same sequence?
Its binding signal is -0.319 z-score.

What about the binding signal (GALNT12 (human)) of the same sequence?
The binding signal was -0.306 z-score.

And the binding signal (GAMT (human))?
The binding signal was -0.334 z-score.
